{
  "sequences": {"note": "Sequences of proteins named here, by UniProt entry; tags and fusion partners are left off. A change or cut given only in a name is not applied to a line headed by its entry.", "UniProt Q12874": "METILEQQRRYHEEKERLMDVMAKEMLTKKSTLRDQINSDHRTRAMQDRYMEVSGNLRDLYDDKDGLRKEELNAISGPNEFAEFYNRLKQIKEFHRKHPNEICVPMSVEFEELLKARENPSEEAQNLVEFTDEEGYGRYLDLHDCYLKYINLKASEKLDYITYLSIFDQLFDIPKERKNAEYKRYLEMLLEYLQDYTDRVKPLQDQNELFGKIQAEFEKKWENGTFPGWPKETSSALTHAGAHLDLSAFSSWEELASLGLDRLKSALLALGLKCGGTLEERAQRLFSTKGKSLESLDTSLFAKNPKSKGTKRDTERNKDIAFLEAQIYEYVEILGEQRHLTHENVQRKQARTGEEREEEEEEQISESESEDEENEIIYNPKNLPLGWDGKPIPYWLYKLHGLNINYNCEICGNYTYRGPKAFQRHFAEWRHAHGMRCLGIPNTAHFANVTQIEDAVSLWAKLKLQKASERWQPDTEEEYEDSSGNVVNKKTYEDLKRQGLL", "UniProt Q06210": "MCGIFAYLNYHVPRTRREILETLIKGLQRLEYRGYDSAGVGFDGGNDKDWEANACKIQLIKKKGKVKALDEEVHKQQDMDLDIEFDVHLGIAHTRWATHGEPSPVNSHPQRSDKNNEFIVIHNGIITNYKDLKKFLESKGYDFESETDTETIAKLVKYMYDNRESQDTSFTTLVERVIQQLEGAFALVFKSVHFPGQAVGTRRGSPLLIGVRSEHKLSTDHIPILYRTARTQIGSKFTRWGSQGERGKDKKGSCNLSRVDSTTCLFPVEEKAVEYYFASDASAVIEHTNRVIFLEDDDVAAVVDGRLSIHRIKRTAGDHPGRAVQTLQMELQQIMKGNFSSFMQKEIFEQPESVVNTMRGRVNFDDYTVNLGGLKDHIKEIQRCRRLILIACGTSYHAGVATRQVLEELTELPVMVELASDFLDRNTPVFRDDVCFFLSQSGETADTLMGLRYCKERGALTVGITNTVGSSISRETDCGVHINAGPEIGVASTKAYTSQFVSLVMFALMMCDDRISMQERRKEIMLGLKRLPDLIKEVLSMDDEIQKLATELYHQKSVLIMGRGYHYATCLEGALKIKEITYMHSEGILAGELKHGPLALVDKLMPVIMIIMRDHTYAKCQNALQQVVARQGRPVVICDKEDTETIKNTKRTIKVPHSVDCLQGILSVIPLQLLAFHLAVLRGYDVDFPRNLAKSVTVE", "UniProt Q13111, whole entry, looked up": "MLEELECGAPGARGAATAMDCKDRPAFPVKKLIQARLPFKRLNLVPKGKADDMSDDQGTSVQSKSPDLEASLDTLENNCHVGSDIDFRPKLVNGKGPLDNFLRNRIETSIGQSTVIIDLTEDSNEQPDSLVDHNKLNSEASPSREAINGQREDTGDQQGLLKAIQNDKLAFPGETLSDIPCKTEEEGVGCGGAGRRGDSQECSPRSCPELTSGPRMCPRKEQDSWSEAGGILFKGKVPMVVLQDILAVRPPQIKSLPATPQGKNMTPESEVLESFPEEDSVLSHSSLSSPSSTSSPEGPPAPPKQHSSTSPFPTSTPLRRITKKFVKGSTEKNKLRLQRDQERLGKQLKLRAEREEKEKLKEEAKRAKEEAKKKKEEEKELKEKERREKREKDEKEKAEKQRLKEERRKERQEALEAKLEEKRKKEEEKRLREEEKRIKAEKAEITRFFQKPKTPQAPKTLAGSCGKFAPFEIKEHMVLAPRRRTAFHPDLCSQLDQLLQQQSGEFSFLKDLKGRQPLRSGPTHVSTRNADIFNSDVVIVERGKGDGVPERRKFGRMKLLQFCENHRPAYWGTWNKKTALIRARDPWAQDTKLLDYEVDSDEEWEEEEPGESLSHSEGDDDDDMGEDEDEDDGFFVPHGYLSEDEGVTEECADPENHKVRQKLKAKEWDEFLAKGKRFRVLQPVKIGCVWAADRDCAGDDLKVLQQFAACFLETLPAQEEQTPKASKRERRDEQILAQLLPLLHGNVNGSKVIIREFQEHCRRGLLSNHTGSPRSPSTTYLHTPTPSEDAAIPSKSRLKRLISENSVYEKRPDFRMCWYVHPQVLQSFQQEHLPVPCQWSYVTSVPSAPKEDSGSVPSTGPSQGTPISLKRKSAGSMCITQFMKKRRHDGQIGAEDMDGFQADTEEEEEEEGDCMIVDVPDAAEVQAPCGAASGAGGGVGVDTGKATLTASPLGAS", "UniProt Q13428": "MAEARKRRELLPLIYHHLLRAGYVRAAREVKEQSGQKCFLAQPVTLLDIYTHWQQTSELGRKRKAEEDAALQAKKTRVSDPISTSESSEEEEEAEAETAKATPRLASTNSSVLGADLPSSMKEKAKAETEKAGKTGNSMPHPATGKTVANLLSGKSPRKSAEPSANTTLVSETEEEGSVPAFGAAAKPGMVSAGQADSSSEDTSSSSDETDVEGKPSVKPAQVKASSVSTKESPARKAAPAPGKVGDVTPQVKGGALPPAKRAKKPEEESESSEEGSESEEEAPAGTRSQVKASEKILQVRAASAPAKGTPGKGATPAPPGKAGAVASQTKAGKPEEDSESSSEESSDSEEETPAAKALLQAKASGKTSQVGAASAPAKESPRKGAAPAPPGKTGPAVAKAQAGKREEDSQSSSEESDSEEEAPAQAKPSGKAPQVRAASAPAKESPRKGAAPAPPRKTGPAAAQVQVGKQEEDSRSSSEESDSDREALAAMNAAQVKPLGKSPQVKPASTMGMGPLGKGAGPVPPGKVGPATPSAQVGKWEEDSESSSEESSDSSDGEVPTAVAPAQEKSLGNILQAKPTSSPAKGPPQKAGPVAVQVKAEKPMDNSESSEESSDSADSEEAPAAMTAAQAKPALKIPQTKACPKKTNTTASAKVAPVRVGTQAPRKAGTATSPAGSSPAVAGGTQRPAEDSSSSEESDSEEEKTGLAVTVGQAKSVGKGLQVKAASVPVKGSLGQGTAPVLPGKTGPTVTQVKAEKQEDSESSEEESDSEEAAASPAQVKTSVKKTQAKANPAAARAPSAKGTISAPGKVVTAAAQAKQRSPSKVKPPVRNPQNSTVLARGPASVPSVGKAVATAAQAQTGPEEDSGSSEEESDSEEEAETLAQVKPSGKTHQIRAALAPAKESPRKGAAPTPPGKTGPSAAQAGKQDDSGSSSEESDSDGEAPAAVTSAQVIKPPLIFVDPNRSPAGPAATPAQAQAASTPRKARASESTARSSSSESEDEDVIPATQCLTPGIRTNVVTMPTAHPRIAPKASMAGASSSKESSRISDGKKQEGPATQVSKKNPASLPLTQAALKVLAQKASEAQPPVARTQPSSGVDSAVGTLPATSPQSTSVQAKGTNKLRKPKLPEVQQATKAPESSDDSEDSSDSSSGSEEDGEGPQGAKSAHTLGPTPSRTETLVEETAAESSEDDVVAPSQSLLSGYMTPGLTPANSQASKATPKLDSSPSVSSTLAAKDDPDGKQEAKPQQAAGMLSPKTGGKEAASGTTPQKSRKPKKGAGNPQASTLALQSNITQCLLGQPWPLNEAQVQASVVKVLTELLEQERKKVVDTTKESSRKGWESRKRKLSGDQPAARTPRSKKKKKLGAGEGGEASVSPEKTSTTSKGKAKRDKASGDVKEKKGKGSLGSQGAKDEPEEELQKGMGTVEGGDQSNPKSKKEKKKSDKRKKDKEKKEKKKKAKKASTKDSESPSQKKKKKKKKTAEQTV", "UniProt Q13424": "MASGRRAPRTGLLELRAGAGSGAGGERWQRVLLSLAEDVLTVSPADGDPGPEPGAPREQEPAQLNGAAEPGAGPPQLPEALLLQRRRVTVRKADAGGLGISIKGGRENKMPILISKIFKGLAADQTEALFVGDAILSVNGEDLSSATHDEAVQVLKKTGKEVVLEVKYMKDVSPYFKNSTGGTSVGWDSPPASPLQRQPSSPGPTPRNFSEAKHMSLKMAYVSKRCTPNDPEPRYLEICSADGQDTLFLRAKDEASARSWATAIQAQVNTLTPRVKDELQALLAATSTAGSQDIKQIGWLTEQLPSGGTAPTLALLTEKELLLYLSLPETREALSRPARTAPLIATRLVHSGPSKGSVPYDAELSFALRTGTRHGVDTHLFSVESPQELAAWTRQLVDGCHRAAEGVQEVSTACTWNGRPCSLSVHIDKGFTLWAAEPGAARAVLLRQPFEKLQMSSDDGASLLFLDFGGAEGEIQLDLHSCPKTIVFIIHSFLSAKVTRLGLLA", "UniProt Q07866": "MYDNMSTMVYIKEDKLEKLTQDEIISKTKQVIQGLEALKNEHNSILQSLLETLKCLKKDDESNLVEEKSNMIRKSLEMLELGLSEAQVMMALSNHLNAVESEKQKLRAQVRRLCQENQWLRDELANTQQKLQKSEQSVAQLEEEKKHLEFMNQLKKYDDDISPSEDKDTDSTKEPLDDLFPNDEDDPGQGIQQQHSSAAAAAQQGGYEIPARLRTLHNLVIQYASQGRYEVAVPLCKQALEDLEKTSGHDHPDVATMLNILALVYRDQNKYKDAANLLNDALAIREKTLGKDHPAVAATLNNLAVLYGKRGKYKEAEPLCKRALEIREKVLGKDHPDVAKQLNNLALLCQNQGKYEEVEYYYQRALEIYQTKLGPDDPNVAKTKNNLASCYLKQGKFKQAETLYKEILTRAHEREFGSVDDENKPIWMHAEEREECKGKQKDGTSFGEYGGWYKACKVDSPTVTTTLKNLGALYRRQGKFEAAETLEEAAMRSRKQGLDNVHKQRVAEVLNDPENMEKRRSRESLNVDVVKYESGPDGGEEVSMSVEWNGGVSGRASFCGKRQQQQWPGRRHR", "UniProt Q13155": "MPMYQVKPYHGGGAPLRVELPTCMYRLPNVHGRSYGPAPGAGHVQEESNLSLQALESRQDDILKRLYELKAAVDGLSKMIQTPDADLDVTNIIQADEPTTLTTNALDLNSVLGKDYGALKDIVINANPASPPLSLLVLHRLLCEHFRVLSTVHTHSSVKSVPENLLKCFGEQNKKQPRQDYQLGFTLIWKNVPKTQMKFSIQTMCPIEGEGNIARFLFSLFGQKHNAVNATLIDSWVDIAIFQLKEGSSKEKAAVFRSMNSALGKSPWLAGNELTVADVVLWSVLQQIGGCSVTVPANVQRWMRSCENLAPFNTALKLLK", "UniProt Q04724": "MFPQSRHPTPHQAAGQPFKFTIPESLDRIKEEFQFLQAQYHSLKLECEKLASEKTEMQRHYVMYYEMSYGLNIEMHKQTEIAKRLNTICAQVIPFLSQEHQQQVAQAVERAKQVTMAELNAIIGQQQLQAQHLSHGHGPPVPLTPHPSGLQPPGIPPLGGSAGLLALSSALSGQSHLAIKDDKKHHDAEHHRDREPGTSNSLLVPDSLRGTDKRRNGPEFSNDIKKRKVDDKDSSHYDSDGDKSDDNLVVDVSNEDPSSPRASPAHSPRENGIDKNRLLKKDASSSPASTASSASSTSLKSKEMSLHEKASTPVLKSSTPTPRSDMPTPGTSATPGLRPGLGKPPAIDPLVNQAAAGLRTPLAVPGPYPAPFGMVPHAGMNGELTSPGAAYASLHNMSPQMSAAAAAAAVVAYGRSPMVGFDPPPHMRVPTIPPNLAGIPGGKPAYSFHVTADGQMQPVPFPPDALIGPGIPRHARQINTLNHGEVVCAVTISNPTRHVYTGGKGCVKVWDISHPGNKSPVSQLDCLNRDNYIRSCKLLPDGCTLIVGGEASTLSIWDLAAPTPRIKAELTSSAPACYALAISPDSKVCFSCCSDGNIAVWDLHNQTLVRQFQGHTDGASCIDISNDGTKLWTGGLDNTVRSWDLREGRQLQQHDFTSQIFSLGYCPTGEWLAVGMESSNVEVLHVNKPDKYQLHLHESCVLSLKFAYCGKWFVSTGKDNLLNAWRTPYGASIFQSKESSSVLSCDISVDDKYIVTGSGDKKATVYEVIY", "UniProt Q06330": "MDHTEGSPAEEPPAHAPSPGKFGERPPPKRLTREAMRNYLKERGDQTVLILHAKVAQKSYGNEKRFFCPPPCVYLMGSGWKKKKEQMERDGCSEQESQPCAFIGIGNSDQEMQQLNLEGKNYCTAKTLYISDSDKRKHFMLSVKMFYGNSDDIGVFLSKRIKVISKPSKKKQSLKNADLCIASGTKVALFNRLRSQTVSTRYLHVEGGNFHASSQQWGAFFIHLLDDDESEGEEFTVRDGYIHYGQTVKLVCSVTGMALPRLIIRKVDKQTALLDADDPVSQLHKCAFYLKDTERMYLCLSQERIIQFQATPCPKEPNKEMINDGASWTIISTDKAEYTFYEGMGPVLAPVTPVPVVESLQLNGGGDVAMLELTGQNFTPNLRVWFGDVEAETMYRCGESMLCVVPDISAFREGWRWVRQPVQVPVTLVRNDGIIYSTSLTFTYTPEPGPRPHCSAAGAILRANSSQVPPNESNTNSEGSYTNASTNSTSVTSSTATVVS"},
  "source": "the supplement of paper PMC11006884",
  "note": "Only a part is listed here, and it is no random draw.",
  "data": [
    {"compound": "COC(=O)C#Cc1ccccc1 [methyl 3-phenylpropiolate]", "assay": "log2 ratio of iodoacetamide-alkyne labeling of the cysteine site, DMSO over compound (competition); higher = stronger covalent engagement of the cysteine by the compound, active = 1 or more", "conditions": "500 µM; treatment time 1 h; system: HEK293T cell lysate", "method_in_brief": "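Electrophile (500 µM) or vehicle was added to HEK293T lysate (2 mg/mL) for 1 h at ambient temperature before iodoacetamide alkyne labelling (1 h) and click coupling to sCIP-TMT reagents. After pooling, overnight trypsin digestion at 37 °C, streptavidin enrichment and acid elution, peptides were measured by Orbitrap Eclipse LC-MS/MS with FAIMS and quantified in FragPipe. Each cysteine's log2 competition ratio compares mean control-channel with mean compound-channel reporter intensity, control over compound. Data came from duplicate channels across three replicates, excluding cysteines quantified in only one replicate.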", "values": [
      {"target": "RPL18 C134 (UniProt Q07020)", "log2 ratio of iodoacetamide-alkyne labeling": "inactive: 0.213"},
      {"target": "ILF3 C295 (UniProt Q12906)", "log2 ratio of iodoacetamide-alkyne labeling": "inactive: 0.193"},
      {"target": "AP1B1 C921 (UniProt Q10567)", "log2 ratio of iodoacetamide-alkyne labeling": "inactive: 0.495"},
      {"target": "SSRP1 C200 (UniProt Q08945)", "log2 ratio of iodoacetamide-alkyne labeling": "inactive: 0.665"},
      {"target": "UniProt Q02750_C376", "log2 ratio of iodoacetamide-alkyne labeling": "inactive: -0.129"},
      {"target": "TARDBP C50 (UniProt Q13148)", "log2 ratio of iodoacetamide-alkyne labeling": "inactive: 0.204"},
      {"target": "PSMD2 C459 (UniProt Q13200)", "log2 ratio of iodoacetamide-alkyne labeling": "inactive: 0.253"},
      {"target": "SF3A3 C437 (UniProt Q12874)", "log2 ratio of iodoacetamide-alkyne labeling": "inactive: 0.056"},
      {"target": "GFPT1 C55 (UniProt Q06210)", "log2 ratio of iodoacetamide-alkyne labeling": "inactive: 0.387"},
      {"target": "CHAF1A C79 (UniProt Q13111)", "log2 ratio of iodoacetamide-alkyne labeling": "inactive: 0.198"},
      {"target": "CHAF1A C21 (UniProt Q13111)", "log2 ratio of iodoacetamide-alkyne labeling": "inactive: 0.878"},
      {"target": "TCOF1 C1298 (UniProt Q13428)", "log2 ratio of iodoacetamide-alkyne labeling": "inactive: 0.666"},
      {"target": "CEBPZ C282 (UniProt Q03701)", "log2 ratio of iodoacetamide-alkyne labeling": "inactive: 0.575"},
      {"target": "DLX2 C230 (UniProt Q07687)", "log2 ratio of iodoacetamide-alkyne labeling": "inactive: 0.305"},
      {"target": "TRAF2 C107 (UniProt Q12933)", "log2 ratio of iodoacetamide-alkyne labeling": "inactive: 0.213"},
      {"target": "TARBP1 C1556 (UniProt Q13395)", "log2 ratio of iodoacetamide-alkyne labeling": "inactive: 0.00206"},
      {"target": "EXOSC9 C9 (UniProt Q06265)", "log2 ratio of iodoacetamide-alkyne labeling": "inactive: 0.307"},
      {"target": "CHAF1A C181 (UniProt Q13111)", "log2 ratio of iodoacetamide-alkyne labeling": "inactive: -0.312"},
      {"target": "SNTA1 C239 (UniProt Q13424)", "log2 ratio of iodoacetamide-alkyne labeling": "inactive: 0.102"},
      {"target": "RING1 C69 (UniProt Q06587)", "log2 ratio of iodoacetamide-alkyne labeling": "inactive: 0.171"},
      {"target": "UniProt Q09028_C203", "log2 ratio of iodoacetamide-alkyne labeling": "inactive: 0.00172"},
      {"target": "IFIT5 C137 (UniProt Q13325)", "log2 ratio of iodoacetamide-alkyne labeling": "inactive: 0.261"},
      {"target": "DST C5527 (UniProt Q03001)", "log2 ratio of iodoacetamide-alkyne labeling": "inactive: -0.0122"},
      {"target": "CHAF1A C202 (UniProt Q13111)", "log2 ratio of iodoacetamide-alkyne labeling": "inactive: 0.923"},
      {"target": "KLC1 C55 (UniProt Q07866)", "log2 ratio of iodoacetamide-alkyne labeling": "inactive: 0.381"},
      {"target": "GFPT1 C264 (UniProt Q06210)", "log2 ratio of iodoacetamide-alkyne labeling": "inactive: 0.349"},
      {"target": "UniProt Q12948_C550", "log2 ratio of iodoacetamide-alkyne labeling": "inactive: 0.491"},
      {"target": "CHAF1A C190 (UniProt Q13111)", "log2 ratio of iodoacetamide-alkyne labeling": "active: 1.08"},
      {"target": "EIF4G1 C934 (UniProt Q04637)", "log2 ratio of iodoacetamide-alkyne labeling": "inactive: 0.131"},
      {"target": "EIF2B5 C335 (UniProt Q13144)", "log2 ratio of iodoacetamide-alkyne labeling": "inactive: 0.267"},
      {"target": "UniProt Q13155_C168", "log2 ratio of iodoacetamide-alkyne labeling": "inactive: 0.346"},
      {"target": "NOTCH2 C1357 (UniProt Q04721)", "log2 ratio of iodoacetamide-alkyne labeling": "active: 1.55"},
      {"target": "TLE1 C89 (UniProt Q04724)", "log2 ratio of iodoacetamide-alkyne labeling": "inactive: 0.362"},
      {"target": "RBPJ C397 (UniProt Q06330)", "log2 ratio of iodoacetamide-alkyne labeling": "inactive: 0.64"},
      {"target": "CEBPZ C411 (UniProt Q03701)", "log2 ratio of iodoacetamide-alkyne labeling": "inactive: 0.261"},
      {"target": "AP1B1 C123 (UniProt Q10567)", "log2 ratio of iodoacetamide-alkyne labeling": "inactive: 0.316"},
      {"target": "GALNT2 C229 (UniProt Q10471)", "log2 ratio of iodoacetamide-alkyne labeling": "inactive: 0.0139"},
      {"target": "STX5 C68 (UniProt Q13190)", "log2 ratio of iodoacetamide-alkyne labeling": "inactive: 0.4"}
    ]}
  ]
}
